From the supplement of paper PMC7125110
± gives the standard error. The uncertainty is large for many entries.

B1: glmS ribozyme (parent)
chain: AUAAAAGCGCCAGAACUACAGAAAUGUAGUUGACGAGGAGGAGGUUUAUCGAAUUUUCGGCGGAUGCCUCCAAA

Variants of: B1
Experiment: self-cleavage kobs at 640 uM GlcN6P; higher = faster cleavage; RNA array
Settings: with glucosamine-6-phosphate
Summary of the method: (§1)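 A hybridised Cy3 probe tracked barcoded ribozyme variants, transcribed in situ by E. coli RNA polymerase on sequenced MiSeq chips, at 37 °C. The variants received 40 μM to 10 mM glucosamine-6-phosphate in HEPES/KCl/Mg(OAc)2 buffer. kobs came from decay fits and kcat and KM from weighted Michaelis–Menten fits.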

Variant | self-cleavage kobs at 640 uM GlcN6P
AUAAAAGCGCCUGAACUACAGAAAUGUAGUUGACGAGGAGGAGGUUUAUCGAAUUUUCGGCGGAUGUCUGCAAA [A12U C67U C70G] | 2.84e-05 ± 2.1e-05 s⁻¹
AUAAAAGCGCCAGACCUACAGAAAUGUAGUUGACGAGGAGGAGGUUUAUCGAAUUUUUGGCGGAUGCCUCCAAA [A15C C58U] | 2.47e-05 ± 1.4e-05 s⁻¹
AUAAAAGCGCCAGGACUACAGAAAUGUAGUUGACGGGGAGGAGGUUUAUCGAAUUUUCGGCGGAUGCCUGCAAA [A14G A36G C70G] | 3.42e-05 ± 1.9e-05 s⁻¹
AUAAAAGCGCUAGAACUACAGAAAUGUAUUUGACGAGGAGGGGGUUUAUCGAAUUUUCGGCGGAUGCCUCCAAA [C11U G29U A42G] | 3.84e-05 ± 2.5e-05 s⁻¹
AUAAAAGCGCCCGAACUACAGAAAUGUAGUUGACGAGGAGGAGGUAUAUCGAAUUUUCGGCGGAUGCCUCAAAA [A12C U46A C71A] | 3.69e-05 ± 2.2e-05 s⁻¹
AUAAAAGCGCCAGACAUACAGAAAUGUAGUUGACGAGGAGGAGGUUUAUCGAAUUUUCGGCGGAUGCCUUUAAA [A15C C16A C70U C71U] | 3.22e-05 ± 1.9e-05 s⁻¹
AUAAAAGCGCCAAAACUACAGAAAUGUAGUUGACGAGGAGGAGGUUUAUCGAAUUUACGGCGGAUGCCUCCAAA [G13A U57A] | 3.64e-05 ± 1.9e-05 s⁻¹
AUAAAAGCGCGAGAACUACAGAAAUGUAGUUAACGAGGAGGAGGUUUAUCGAAUUUUCGGCGGAUGCCGCCAAA [C11G G32A U69G] | 3.94e-05 ± 2.5e-05 s⁻¹
AUAAAAGCGCCCGCACUACAGAAAUGUAGUUGACGAGGAGGAGGUUUAUCGAAUUUUCGGCGGAUGCCUUCAAA [A12C A14C C70U] | 1.86e-05 ± 1.4e-05 s⁻¹
AUAAAAGCGUCAGAAUUACAGAAAUGUAGUUUACGAGGAGGAGGUUUAUCGAAUUUUCGGCGGAUGCCUCCAAA [C10U C16U G32U] | 4.25e-05 ± 3.4e-05 s⁻¹
AUAAAAGCGCGAGUACUACAGAAAUGUAGUUGUCGAGGAGGAGGUUUAUCGUAUUUUCGGCGGAUGCCUUUAAA [C11G A14U A33U A52U C70U C71U] | 2.9e-05 ± 2.3e-05 s⁻¹
AUAAAAGCGCGAGAACUACAGAAAUGUAGUUGACGAGGAGGAGGUUUAUCGAAUUUUCGGCGGGUGCCCCUAAA [C11G A64G U69C C71U] | 3.3e-05 ± 2.9e-05 s⁻¹
AUAAAAGCGUCAGAACUACAGAAAUGUAGGUGACGAGGAGGAGGUUUAUCGAAUUUUCGGCGGAUGCCUUCAAA [C10U U30G C70U] | 3.17e-05 ± 2.2e-05 s⁻¹
AUAAAAGCGCCCGAACUACAGAAAUGUAGUUGACGAUGAGGAGGUUUAUGGAAGUUUCGGCGGAUGCCUCCAAA [A12C G37U C50G U54G] | 3.49e-05 ± 2.4e-05 s⁻¹
AUAAAAGCGCCCGAACUACAGAAAUGUAGUUGACGAGGAGGAGGUUUAUUGAAUUUUCGGCGGAUGCCUCCAAA [A12C C50U] | 2.42e-05 ± 1.3e-05 s⁻¹
AUAAAAGCGCCAGCACUACAGAAAUGUAUUUGACGAUAAGGAGGUUUAUCGAAUUUUCGGCGGAUGCCUACAAA [A14C G29U G37U G38A C70A] | 4.14e-05 ± 2.8e-05 s⁻¹
AUAAAAGCGCCAGUACUACAGAAAUGUAGUUAACGAGGAGGAGGUUUAUCGAAUUUUUGGCGGAUGCCUCCAAA [A14U G32A C58U] | 2.8e-05 ± 1.8e-05 s⁻¹
AUAAAAGCGUCAGAACUACAGAAAUGUAGUUGACGAGGAGGAGGUUUAUCGAAUUUUCGGCGGAUGCCUGCAAA [C10U C70G] | 2.12e-05 ± 1.6e-05 s⁻¹
AUAAAAGCGCUAGAACUACAGAAAUGUAGGUGACGAGGAGGAGGGUUAUCGAAUUUUCGGCGGAUGCCUCCAAA [C11U U30G U45G] | 2.17e-05 ± 1.5e-05 s⁻¹
AUAAAAGCGCCAAAACUACAGAAAUGUAGUUGACGAGGAGGAGGUUUAUCGAAUUUUCGGCGGAUGCGUCCAAA [G13A C68G] | 1.92e-05 ± 1.4e-05 s⁻¹
AUAAAAGCGCCAGAAAUACAGAAAUGUAGCUGACGAGGAGGAGGUUUAUCGAAUUUGCGGCGGACGCCUUCAAA [C16A U30C U57G U65C C70U] | 3.33e-05 ± 1.7e-05 s⁻¹
AUAAAAGCGCCGGACCUACAGAAAUGUAGUGGACGAGGAGGAGGUUUAUCGAAUUUUCGGCGGAUGCGUCCAAA [A12G A15C U31G C68G] | 0.000134 ± 8.6e-05 s⁻¹
AUAAAAGCGCCCGAACUACAGAAAUGUAGUUGACGAGGAGGAGGUCUAUGGAAUUUUCGGCGUAUGGUUCCAAA [A12C U46C C50G G63U C67G C68U] | 3.42e-05 ± 2.7e-05 s⁻¹
AUAAAAGCGCCCGAACUACAGAAAUGUAGUUGACGAAGAGGAGGUUUAUCGGAUUUUCGGCGGAUGCCUCCAAA [A12C G37A A52G] | 1.79e-05 ± 1.3e-05 s⁻¹
AUAAAAGCGCCAUGACUACAGAAAUGUAGUUGACGAGGAGGAGGUUUAUCGAAUUUUCGGUGGAUGCCUGCAAA [G13U A14G C61U C70G] | 2.23e-05 ± 2.2e-05 s⁻¹
AUAAAAGCGCCCGAACUACAGAAAUGUAGUUGACGAGGAGUAGGUUUAUCGAAUUUUCGGCGGAUGCCUACAAA [A12C G41U C70A] | 0.0199 ± 0.01 s⁻¹

Fetched one by one from the entries so far (2):
Variant | self-cleavage kobs at 640 uM GlcN6P
AUAAAAGCGCCAGACAUACAGAAAUGUAGUUGACGAGGAGGAGGUUUAUCGAAUUUUCGGCGGAUGCCUUUAAA [A15C C16A C70U C71U] | 3.22e-05 ± 1.9e-05 s⁻¹
AUAAAAGCGCCCGAACUACAGAAAUGUAGUUGACGAGGAGGAGGUAUAUCGAAUUUUCGGCGGAUGCCUCAAAA [A12C U46A C71A] | 3.69e-05 ± 2.2e-05 s⁻¹

Variants of: B1
Experiment: self-cleavage kobs at 10000 uM GlcN6P; higher = faster cleavage; RNA array
Settings: with glucosamine-6-phosphate
Summary of the method: as §1

Variant | self-cleavage kobs at 10000 uM GlcN6P
AUAAAAGCGCCUGAACUACAGAAAUGUAGUUGACGAGGAGGAGGUUUAUCGAAUUUUCGGCGGAUGUCUGCAAA [A12U C67U C70G] | 2.58e-05 ± 1.6e-05 s⁻¹
AUAAAAGCGCGAGAACUACAGAAAUGUAGUUAACGAGGAGGAGGUUUAUCGAAUUUUCGGCGGAUGCCGCCAAA [C11G G32A U69G] | 2.12e-05 ± 1.9e-05 s⁻¹

Variants of: B1
Experiment: self-cleavage kobs at 2500 uM GlcN6P; higher = faster cleavage; RNA array
Settings: with glucosamine-6-phosphate
Summary of the method: as §1

Variant | self-cleavage kobs at 2500 uM GlcN6P
AUAAAAGCGCCAGGACUACAGAAAUGUAGUUGACGGGGAGGAGGUUUAUCGAAUUUUCGGCGGAUGCCUGCAAA [A14G A36G C70G] | 3.38e-05 ± 2.4e-05 s⁻¹
AUAAAAGCGCUAGAACUACAGAAAUGUAUUUGACGAGGAGGGGGUUUAUCGAAUUUUCGGCGGAUGCCUCCAAA [C11U G29U A42G] | 5.85e-05 ± 5.4e-05 s⁻¹
AUAAAAGCGCGAGAACUACAGAAAUGUAGUUAACGAGGAGGAGGUUUAUCGAAUUUUCGGCGGAUGCCGCCAAA [C11G G32A U69G] | 3.91e-05 ± 2.7e-05 s⁻¹
AUAAAAGCGCGAGAACUACAGAAAUGUAGUUGACGAGGAGGAGGUUUAUCGAAUUUUCGGCGGGUGCCCCUAAA [C11G A64G U69C C71U] | 3.05e-05 ± 2.2e-05 s⁻¹
AUAAAAGCGUCAGAACUACAGAAAUGUAGGUGACGAGGAGGAGGUUUAUCGAAUUUUCGGCGGAUGCCUUCAAA [C10U U30G C70U] | 4.45e-05 ± 2.3e-05 s⁻¹
AUAAAAGCGCCAAAACUACAGAAAUGUAGUUGACGAGGAGGAGGUUUAUCGAAUUUUCGGCGGAUGCGUCCAAA [G13A C68G] | 2.34e-05 ± 1.8e-05 s⁻¹
AUAAAAGCGCCAGAAAUACAGAAAUGUAGCUGACGAGGAGGAGGUUUAUCGAAUUUGCGGCGGACGCCUUCAAA [C16A U30C U57G U65C C70U] | 3.99e-05 ± 3.3e-05 s⁻¹
AUAAAAGCGCCCGAACUACAGAAAUGUAGUUGACGAGGAGGAGGUCUAUGGAAUUUUCGGCGUAUGGUUCCAAA [A12C U46C C50G G63U C67G C68U] | 5.45e-05 ± 2.8e-05 s⁻¹
AUAAAAGCGCCCGAACUACAGAAAUGUAGUUGACGAGGAGUAGGUUUAUCGAAUUUUCGGCGGAUGCCUACAAA [A12C G41U C70A] | 0.0234 ± 0.014 s⁻¹

Variants of: B1
Experiment: self-cleavage kobs at 160 uM GlcN6P; higher = faster cleavage; RNA array
Settings: with glucosamine-6-phosphate
Summary of the method: as §1

Variant | self-cleavage kobs at 160 uM GlcN6P
AUAAAAGCGUCAGAACUACAGAAAUGUAGUUGACGAGGAGGAGGUUUAUCGAAUUUUCGGCGGAUGCCUGCAAA [C10U C70G] | 2.21e-05 ± 1.2e-05 s⁻¹
